In PubChem BioAssay AID493014 (National Center for Advancing Translational Sciences (NCATS), 2011):
This is one part of the list. The main result of the screen is listed elsewhere. These columns were measured beside it and carry no call. The list favours compounds with an active or inconclusive main result. Words in brackets tell the shape of the fitted curve; partial curves, single points and poor fits give uncertain potencies.

Test: qHTS Assay to Find Inhibitors of Chronic Active B-Cell Receptor Signaling
Settings: ABC-DLBCL IkBa-CBG/CBR reporter, luminescence ratio (green luciferase fused to IkBa over red control in TMD8 lymphoma cells), 4 h; measured here: CBR red luminescence, cell number
Summary of the method: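 Cell line TMD8 (human ABC DLBCL), stably expressing tet-inducible CBG68-IkBa fusion and CBR; IMDM/0.5% FBS; cpd up to 46 uM; dox induction, 4 h, 37C/5% CO2; dual luminescence; green/red ratio; MG132 control.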

Row | Compound | AC50
1 | c1ccc(-c2cc(-c3ccccc3)[n+](-c3ccccc3)c(-c3ccccc3)c2)cc1 | 35.5 µM [falling, partial curve, poor fit]
2 | O=C(N/N=C/c1c(O)n(CCC2=CCCCC2)c(=O)[nH]c1=O)c1ccccc1 | 4.11 µM [falling, partial curve]
3 | Cc1c(C(=O)N2CCC3(CC2)OCCO3)oc2ccc(S(=O)(=O)N3CCCCC3)cc12 | 7.31 µM [rising, partial curve, poor fit]
4 | O=c1[nH]c(=O)n(Cc2ccco2)c(O)c1C=NCc1ccc2c(c1)OCO2 | 0.794 µM [rising, full curve]
5 | NS(=O)(=O)c1ccc(N2CCNCC2)cc1 | 35.5 µM [rising, single point]
6 | O=C1NC(c2cccnc2)Nc2sc3c(c21)CCCC3 (stereo not drawn) | 6.51 µM [rising, single point]
7 | CCCC(=O)NC(Oc1ccc(OC)cc1)C(Cl)(Cl)Cl (stereo not drawn) | 31.6 µM [rising, single point]
8 | CCCCCCn1c(O)c(C=Nc2c(C)n(C)n(-c3ccccc3)c2=O)c(=O)[nH]c1=O | 20.6 µM [rising, partial curve, poor fit]
9 | C=CCn1c(O)c(C(CC)=NCc2ccc3c(c2)OCO3)c(=O)[nH]c1=O | 15.8 µM [falling, partial curve, poor fit]
10 | COc1ccc(-c2cc(C(=O)N(C)Cc3ccccc3)no2)cc1OC | 12.6 µM [falling, partial curve]
11 | CC(C)=CCc1c(O)cc2c(c1O)C(=O)CC(c1ccc(O)cc1)O2 (stereo not drawn) | 35.5 µM [falling, single point]
12 | COc1ccccc1/C=N/N=C(/N)N[N+](=O)[O-] | 18.4 µM [falling, single point]
13 | C[C@H]1CCCC(=O)CCC/C=C/c2cc(O)cc(O)c2C(=O)O1 | 5.8 µM [falling, full curve]
14 | C/C(=N\NC(=O)c1cc(-c2ccc(C)s2)[nH]n1)c1ccncc1 | 10 µM [falling, partial curve, poor fit]
15 | CC(C)COC(=O)c1ccccc1C(=O)OCC(C)C | 0.398 µM [falling, partial curve, poor fit]
16 | CN1CCN(CC(=O)Nc2ccc([N+](=O)[O-])cc2C(=O)c2ccccc2)CC1 | 0.708 µM [rising, full curve, poor fit]
17 | Cc1cc(O)c2c(c1)OC(C)(C)C1=C2CC(C)CC1 (stereo not drawn) | 35.5 µM [rising, single point]
18 | NC(=O)c1ccc(C(=O)Nc2ccc([As](=O)(O)O)cc2)cc1 | 15.8 µM [falling, partial curve, poor fit]

As entered above.
C[C@H]1CCCC(=O)CCC/C=C/c2cc(O)cc(O)c2C(=O)O1 | AC50: 5.8 µM [falling, full curve]
NC(=O)c1ccc(C(=O)Nc2ccc([As](=O)(O)O)cc2)cc1 | AC50: 15.8 µM [falling, partial curve, poor fit]
